# Results from the supplement of paper PMC10849652.
# Amino acid sequences for entries named in this document (tags omitted). A change or cut given only in a name is not applied to a line headed by its entry.
# UniProt Q9NQC3: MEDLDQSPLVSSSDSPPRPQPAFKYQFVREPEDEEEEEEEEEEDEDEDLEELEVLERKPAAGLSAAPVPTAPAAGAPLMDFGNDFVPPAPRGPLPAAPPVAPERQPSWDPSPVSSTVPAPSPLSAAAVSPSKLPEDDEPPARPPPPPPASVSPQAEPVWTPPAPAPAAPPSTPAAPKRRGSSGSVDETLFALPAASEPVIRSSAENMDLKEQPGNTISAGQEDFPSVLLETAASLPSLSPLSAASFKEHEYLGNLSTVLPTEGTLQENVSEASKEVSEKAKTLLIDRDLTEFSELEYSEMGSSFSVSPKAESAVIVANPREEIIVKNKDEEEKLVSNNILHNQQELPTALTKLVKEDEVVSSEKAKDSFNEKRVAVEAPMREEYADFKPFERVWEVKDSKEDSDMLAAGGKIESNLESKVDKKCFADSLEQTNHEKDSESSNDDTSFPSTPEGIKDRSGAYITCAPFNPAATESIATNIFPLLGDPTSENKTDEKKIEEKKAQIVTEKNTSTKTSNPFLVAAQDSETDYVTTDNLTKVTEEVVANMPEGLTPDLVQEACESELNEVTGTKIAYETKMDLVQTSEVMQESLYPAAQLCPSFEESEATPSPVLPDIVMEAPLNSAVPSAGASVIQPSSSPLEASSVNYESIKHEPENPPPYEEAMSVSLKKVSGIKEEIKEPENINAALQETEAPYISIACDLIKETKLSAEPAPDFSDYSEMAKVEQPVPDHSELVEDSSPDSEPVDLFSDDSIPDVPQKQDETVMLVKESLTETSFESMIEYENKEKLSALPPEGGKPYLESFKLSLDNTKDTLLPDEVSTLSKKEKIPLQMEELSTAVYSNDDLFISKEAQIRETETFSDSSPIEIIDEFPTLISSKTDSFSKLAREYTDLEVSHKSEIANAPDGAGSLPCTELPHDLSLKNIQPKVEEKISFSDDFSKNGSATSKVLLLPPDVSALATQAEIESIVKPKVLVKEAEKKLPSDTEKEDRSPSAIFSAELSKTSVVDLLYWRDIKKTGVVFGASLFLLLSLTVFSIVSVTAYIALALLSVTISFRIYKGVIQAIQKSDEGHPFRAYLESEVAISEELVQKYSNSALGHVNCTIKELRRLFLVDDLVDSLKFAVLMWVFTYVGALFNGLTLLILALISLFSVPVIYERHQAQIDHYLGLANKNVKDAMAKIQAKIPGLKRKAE
# UniProt Q96IW7: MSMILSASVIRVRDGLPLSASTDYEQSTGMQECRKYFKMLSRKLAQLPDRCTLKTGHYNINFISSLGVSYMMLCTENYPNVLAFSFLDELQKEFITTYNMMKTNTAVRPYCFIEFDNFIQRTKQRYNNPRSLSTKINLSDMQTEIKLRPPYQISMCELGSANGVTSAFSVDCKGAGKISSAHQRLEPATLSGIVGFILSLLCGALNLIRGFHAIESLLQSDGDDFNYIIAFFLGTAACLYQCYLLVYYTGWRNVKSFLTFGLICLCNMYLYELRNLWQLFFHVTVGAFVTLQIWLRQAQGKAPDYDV
# UniProt O95487: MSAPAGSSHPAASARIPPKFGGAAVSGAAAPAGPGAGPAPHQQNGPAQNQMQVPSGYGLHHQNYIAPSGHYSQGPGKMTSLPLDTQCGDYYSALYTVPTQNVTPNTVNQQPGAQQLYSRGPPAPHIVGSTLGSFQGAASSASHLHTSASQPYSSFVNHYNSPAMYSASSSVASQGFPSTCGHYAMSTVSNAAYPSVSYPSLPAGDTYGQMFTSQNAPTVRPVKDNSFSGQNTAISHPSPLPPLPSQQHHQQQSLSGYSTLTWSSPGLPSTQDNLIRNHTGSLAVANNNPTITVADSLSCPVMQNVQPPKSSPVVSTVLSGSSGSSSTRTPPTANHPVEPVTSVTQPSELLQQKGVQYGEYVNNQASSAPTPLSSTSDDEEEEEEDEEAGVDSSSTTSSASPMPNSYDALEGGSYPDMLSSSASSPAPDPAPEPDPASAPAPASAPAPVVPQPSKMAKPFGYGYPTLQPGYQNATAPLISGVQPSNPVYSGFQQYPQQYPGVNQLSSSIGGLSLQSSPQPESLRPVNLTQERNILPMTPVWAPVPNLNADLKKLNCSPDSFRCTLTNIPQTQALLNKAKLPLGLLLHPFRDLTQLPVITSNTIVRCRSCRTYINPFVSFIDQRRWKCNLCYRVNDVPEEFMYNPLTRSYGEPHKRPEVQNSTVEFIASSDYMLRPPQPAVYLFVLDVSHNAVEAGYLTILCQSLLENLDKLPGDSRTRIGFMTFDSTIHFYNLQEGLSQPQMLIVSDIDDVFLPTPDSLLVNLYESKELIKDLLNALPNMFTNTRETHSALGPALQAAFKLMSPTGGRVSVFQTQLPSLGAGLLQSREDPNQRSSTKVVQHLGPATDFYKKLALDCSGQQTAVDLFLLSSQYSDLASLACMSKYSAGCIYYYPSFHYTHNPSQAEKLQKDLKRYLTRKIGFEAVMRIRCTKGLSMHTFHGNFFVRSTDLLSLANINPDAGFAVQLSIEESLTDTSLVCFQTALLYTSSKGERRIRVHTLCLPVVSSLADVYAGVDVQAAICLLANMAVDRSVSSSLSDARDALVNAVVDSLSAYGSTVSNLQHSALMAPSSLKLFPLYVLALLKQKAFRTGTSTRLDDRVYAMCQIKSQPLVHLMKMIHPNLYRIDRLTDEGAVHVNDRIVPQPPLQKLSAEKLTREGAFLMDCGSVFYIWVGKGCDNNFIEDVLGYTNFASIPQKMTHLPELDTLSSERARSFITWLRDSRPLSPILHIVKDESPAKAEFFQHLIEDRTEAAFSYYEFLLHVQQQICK
# UniProt P26447: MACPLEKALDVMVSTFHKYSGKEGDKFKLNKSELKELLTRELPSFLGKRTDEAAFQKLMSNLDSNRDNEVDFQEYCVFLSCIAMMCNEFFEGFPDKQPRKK
# UniProt P23297: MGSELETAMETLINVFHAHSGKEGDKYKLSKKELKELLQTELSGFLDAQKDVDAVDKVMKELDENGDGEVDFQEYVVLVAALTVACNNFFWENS
# UniProt Q5PRF9: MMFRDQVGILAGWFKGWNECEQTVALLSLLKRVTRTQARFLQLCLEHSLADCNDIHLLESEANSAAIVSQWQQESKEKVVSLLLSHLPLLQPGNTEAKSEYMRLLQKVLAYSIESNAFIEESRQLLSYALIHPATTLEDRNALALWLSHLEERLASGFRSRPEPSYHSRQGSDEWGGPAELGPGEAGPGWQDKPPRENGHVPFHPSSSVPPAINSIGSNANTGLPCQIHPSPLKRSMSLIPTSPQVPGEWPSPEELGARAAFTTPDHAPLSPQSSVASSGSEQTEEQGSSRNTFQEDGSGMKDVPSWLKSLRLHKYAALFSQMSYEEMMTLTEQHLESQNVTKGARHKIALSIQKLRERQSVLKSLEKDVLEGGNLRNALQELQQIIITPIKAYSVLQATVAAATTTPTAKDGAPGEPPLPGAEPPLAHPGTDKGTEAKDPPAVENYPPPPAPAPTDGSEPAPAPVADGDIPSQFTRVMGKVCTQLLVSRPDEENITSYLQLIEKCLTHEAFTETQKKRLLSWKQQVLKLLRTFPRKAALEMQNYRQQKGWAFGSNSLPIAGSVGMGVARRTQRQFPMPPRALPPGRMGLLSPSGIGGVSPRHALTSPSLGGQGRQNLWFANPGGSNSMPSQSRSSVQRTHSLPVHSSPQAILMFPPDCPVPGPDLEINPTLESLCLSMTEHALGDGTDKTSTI
# UniProt P28702: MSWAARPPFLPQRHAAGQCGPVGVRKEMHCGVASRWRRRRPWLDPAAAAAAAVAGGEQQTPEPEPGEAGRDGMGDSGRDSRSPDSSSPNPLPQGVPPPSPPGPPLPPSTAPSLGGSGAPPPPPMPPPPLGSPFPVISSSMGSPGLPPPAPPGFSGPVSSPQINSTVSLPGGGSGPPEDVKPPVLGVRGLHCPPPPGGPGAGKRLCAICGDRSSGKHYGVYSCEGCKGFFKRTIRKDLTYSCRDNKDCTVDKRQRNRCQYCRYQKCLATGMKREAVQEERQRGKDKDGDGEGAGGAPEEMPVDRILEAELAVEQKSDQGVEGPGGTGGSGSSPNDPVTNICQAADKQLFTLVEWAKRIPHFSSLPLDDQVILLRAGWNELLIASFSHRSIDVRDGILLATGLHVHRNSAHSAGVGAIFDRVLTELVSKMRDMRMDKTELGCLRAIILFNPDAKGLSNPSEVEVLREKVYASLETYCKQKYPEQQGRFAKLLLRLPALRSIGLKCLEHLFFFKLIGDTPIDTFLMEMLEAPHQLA
# UniProt P60903, whole entry, looked up: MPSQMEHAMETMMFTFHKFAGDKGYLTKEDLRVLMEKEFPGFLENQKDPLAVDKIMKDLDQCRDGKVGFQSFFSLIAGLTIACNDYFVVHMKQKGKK
# UniProt Q92503: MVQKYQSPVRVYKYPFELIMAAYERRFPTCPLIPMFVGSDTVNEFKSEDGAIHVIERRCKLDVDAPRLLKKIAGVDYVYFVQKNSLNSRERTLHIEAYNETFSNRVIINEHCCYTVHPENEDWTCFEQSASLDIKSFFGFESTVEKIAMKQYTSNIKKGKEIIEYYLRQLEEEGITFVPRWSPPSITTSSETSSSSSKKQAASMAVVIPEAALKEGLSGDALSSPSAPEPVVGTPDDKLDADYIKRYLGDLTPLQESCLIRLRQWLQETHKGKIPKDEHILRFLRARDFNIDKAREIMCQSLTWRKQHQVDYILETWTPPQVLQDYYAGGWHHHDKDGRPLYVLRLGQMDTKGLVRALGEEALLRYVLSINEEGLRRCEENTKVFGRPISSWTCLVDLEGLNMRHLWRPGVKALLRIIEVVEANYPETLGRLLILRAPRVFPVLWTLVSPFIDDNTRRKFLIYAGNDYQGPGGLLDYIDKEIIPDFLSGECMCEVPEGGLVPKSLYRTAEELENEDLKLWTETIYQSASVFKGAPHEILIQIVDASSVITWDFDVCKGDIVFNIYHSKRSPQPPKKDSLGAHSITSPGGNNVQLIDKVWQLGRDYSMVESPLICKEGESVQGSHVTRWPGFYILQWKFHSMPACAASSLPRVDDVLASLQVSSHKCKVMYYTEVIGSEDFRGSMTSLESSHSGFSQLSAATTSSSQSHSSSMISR
# UniProt Q9NPB0: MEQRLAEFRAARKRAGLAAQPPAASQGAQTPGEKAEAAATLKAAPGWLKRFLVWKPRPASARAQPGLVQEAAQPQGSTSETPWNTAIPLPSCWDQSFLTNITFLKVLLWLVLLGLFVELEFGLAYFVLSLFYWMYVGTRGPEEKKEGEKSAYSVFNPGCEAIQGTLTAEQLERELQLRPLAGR
# UniProt P48443: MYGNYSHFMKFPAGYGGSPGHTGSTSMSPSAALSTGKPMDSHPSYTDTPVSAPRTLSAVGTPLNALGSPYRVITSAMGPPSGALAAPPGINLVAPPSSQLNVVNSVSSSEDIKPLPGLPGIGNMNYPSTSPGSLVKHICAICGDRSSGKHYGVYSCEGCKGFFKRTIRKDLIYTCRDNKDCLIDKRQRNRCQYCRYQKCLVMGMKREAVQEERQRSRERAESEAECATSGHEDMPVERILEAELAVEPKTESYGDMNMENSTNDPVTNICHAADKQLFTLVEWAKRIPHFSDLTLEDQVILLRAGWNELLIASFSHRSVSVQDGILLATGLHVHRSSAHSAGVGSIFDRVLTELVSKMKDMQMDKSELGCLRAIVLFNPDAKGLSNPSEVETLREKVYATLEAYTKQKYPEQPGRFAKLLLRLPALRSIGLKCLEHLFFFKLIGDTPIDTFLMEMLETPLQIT
# UniProt Q9HCY8: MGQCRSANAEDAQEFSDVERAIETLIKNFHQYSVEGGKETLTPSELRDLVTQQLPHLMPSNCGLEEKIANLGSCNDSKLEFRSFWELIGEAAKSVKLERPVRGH
# UniProt Q9UPU9: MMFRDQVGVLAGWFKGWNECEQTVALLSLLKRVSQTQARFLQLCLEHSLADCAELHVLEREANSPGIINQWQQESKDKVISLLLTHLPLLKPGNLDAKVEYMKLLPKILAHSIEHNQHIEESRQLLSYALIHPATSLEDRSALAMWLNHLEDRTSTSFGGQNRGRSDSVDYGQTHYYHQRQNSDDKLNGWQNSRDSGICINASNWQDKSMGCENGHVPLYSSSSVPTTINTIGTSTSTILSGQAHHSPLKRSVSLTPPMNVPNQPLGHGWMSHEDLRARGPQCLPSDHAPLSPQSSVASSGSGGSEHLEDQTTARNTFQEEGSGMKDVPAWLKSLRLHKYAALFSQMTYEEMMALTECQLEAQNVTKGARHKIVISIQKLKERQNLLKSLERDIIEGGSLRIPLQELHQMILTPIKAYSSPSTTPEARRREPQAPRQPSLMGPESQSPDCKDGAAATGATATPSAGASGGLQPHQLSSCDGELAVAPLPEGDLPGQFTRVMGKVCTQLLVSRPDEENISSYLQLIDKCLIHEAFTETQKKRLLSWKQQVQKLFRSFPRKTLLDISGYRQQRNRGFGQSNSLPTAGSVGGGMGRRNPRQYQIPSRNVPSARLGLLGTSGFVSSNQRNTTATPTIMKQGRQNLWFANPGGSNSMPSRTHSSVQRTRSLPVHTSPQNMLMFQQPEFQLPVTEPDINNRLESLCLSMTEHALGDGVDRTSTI
# The other results are listed elsewhere or left out. Residues, ends and D or L forms follow the SMILES beside them. *: point of attachment. Cbz = O=C(OCc1ccccc1)*
# Tests used:
# Experiment in all cases: log2 fold change, soluble protein after heating vs DMSO (PISA); higher = thermal stabilisation; K562 cells, 10 uM, 30 min; active = over 0.2 and 3.5 SD of the protein, either way, in both replicates (recomputed)
# [1] = compound: C1COCCN1CCN2C3=CC=CC=C3N=C2NC(=O)C4=CC(=CC=C4)[N+](=O)[O-] [IRAK-1-4 Inhibitor I]
# Summary of the method: (§1)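 For each measurement, 10 μM compound was applied for 30 min to K562 cells at 2×10^6 cells/mL. Aliquots were heated for 3 min across 48°C-58°C, pooled, and extracted in PBS with 0.5% NP-40 at 4°C; the supernatant after 21,000xg for 90 min was soluble protein. This was quantified by TMTpro 16plex LC-MS/MS with channel sums equalised, and thermal stability was reported relative to control samples from duplicates, on a log2 fold-change scale.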
# [2] = compound: C=CC(=O)N1CCC[C@@H](n2nc(-c3ccc(Oc4ccccc4)cc3)c3c(N)ncnc32)C1 [ibrutinib]
# Summary of the method: as §1
# [3] = compound: CC(=O)c1cnc2ccc(-c3cc(Cl)c(O)c(Cl)c3)nc2c1N[C@H]1CC[C@H](CN(C)C)CC1
# Summary of the method: as §1
# [4] = compound: CC(C)(C)Cn1c(N)nc2ccc(-c3[nH]c(C(C)(C)C)nc3-c3ccc(F)cc3)nc21 [ralimetinib]
# Summary of the method: as §1
# [5] = compound: CC(C)(O)CC(=O)NCCn1ccc2ncnc(Nc3ccc(Oc4cccc(C(F)(F)F)c4)c(Cl)c3)c21
# Summary of the method: as §1
# [6] = compound: CC(C)C1=C2N=C(C=C(N2N=C1)NCC3=CC=CC=C3)NCCCCCCN
# Summary of the method: as §1
# [7] = compound: CC(C)C[C@@H](C=O)NC(=O)[C@H](CC(C)C)NC(=O)[C@H](CC(C)C)NC(=O)OCc1ccccc1
# Summary of the method: as §1
# [8] = compound: CC(C)N(C[C@H]1O[C@@H](n2cnc3c(N)ncnc32)[C@H](O)[C@@H]1O)[C@H]1C[C@@H](CCc2nc3cc(C(C)(C)C)ccc3[nH]2)C1 [pinometostat]
# Summary of the method: as §1
# [9] = compound: CC1=C(C=C(C=C1)NC(=O)C2=CC(=CC=C2)C(C)(C)C#N)NC3=CC4=C(C=C3)N=CN(C4=O)C
# Summary of the method: as §1
# [10] = compound: CC1=C(C=C(C=C1)NC(=O)C2=CC(=CC=C2)N(C)C)NC(=O)C3=CC=C(C=C3)O
# Summary of the method: as §1
# [11] = compound: CC1=CC=C(C=C1)SC2=C3C=C(SC3=CN=C2)C(=O)N
# Summary of the method: as §1
# [12] = compound: CC1=NC(=CC=C1)C2=C(N=C(N2)C(C)(C)C)C3=CC4=NC=CN=C4C=C3
# Summary of the method: as §1
# [13] = compound: CCCCN(Cc1ccc(C(=O)NO)cc1)C(=O)Nc1ccccc1 [Nexturastat A]
# Summary of the method: as §1
# [14] = compound: CCCS(=O)(=O)Nc1ccc(F)c(C(=O)c2c[nH]c3ncc(-c4ccc(Cl)cc4)cc23)c1F [vemurafenib]
# Summary of the method: as §1
# [15] = compound: CCCS(=O)(=O)Nc1ccc(F)c(C(=O)c2c[nH]c3ncc(Cl)cc23)c1F
# Summary of the method: as §1
# [16] = compound: CCCc1cc(C)[nH]c(=O)c1CNC(=O)c1cc(-c2ccnc(N3CCN(C)CC3)c2)cc2c1cnn2C(C)C
# Summary of the method: as §1
# [17] = compound: CCN(CC)Cc1ccc2cc(COC(=O)Nc3ccc(C(=O)NO)cc3)ccc2c1 [givinostat]
# Summary of the method: as §1
# [18] = compound: CCN(CCCOc1ccc2c(Nc3cc(CC(=O)Nc4cccc(F)c4)[nH]n3)ncnc2c1)CCOP(=O)(O)O [barasertib]
# Summary of the method: as §1
# [19] = compound: CC1=C(C2=C(C=C1)C(=O)C3=CC=CC=C3N2CCCN)C
# Summary of the method: as §1
# [20] = compound: CC1=C(C(CC(=O)N1)C2=CC=C(C=C2)C(F)(F)F)C(=O)NC3=C(C=C4C(=C3)C=NN4)F
# Summary of the method: as §1
Target,log2 fold change [1],log2 fold change [2],log2 fold change [3],log2 fold change [4],log2 fold change [5],log2 fold change [6],log2 fold change [7],log2 fold change [8],log2 fold change [9],log2 fold change [10],log2 fold change [11],log2 fold change [12],log2 fold change [13],log2 fold change [14],log2 fold change [15],log2 fold change [16],log2 fold change [17],log2 fold change [18],log2 fold change [19],log2 fold change [20]
RUNX1 isoform 8 (UniProt Q01196),inactive: -0.102,inactive: 0.058,inactive: -0.207,inactive: -0.043,inactive: -0.138,inactive: -0.184,inactive: 0.082,inactive: 0.069,inactive: 0.236,inactive: 0.018,inactive: 0.059,inactive: -0.045,inactive: -0.231,inactive: -0.026,inactive: 0.046,inactive: 0.088,inactive: 0.076,inactive: -0.058,–,–
"SDHB, A0A087WWT1",inactive: 0.034,inactive: -0.025,inactive: -0.105,inactive: -0.139,inactive: 0.053,inactive: 0.142,inactive: 0.14,inactive: -0.026,inactive: -0.088,inactive: -0.153,inactive: 0.076,inactive: 0.016,inactive: -0.04,inactive: -0.017,inactive: -0.125,inactive: -0.318,inactive: 0.102,inactive: -0.036,–,–
RTN4 isoform 2 (UniProt Q9NQC3),inactive: 0.118,inactive: -0.019,inactive: 0.054,inactive: -0.111,inactive: -0.071,inactive: -0.097,inactive: -0.028,inactive: -0.061,inactive: 0.035,inactive: 0.044,inactive: -0.038,inactive: 0.038,inactive: -0.09,inactive: 0.067,inactive: -0.026,–,inactive: 0.017,inactive: 0.038,inactive: -0.068,–
SEC22A (UniProt Q96IW7),inactive: 0.006,inactive: -0.132,inactive: 0.069,inactive: -0.085,–,inactive: 0.158,inactive: 0.034,inactive: -0.15,–,inactive: 0.007,inactive: -0.02,inactive: 0.047,–,–,inactive: 0.001,–,inactive: -0.026,inactive: -0.075,inactive: -0.027,–
SAFB2 (UniProt K7EQU4),inactive: -0.129,inactive: 0.131,–,–,inactive: -0.042,–,–,inactive: -0.051,–,–,–,inactive: 0.057,inactive: 0.111,–,–,–,–,inactive: 0.295,–,–
SEC24B isoform 3 (UniProt O95487),inactive: -0.035,inactive: -0.052,inactive: 0.03,inactive: 0.136,inactive: -0.049,–,inactive: 0.021,inactive: 0.199,inactive: -0.063,inactive: -0.013,inactive: 0.015,inactive: 0.027,inactive: -0.059,inactive: 0.054,inactive: 0.018,inactive: -0.009,–,inactive: 0.046,inactive: -0.061,–
S100A4 (UniProt P26447),inactive: 0.139,–,inactive: -0.04,inactive: -0.008,–,inactive: -0.159,inactive: -0.019,inactive: -0.074,–,inactive: 0.103,inactive: 0.045,inactive: -0.085,–,–,inactive: -0.054,–,inactive: -0.026,–,–,inactive: -0.077
S100A1 (UniProt P23297),inactive: 0.026,inactive: 0.003,–,inactive: -0.054,inactive: -0.137,inactive: -0.465,inactive: 0.108,inactive: -0.083,inactive: 0.103,inactive: -0.064,–,inactive: 0.187,inactive: -0.066,–,–,–,inactive: -0.204,inactive: 0.077,–,inactive: -0.002
SAMD4B (UniProt Q5PRF9),inactive: 0.007,inactive: -0.024,–,inactive: 0.053,inactive: 0.133,inactive: 0.142,inactive: 0.04,inactive: 0.051,active: -0.501,inactive: -0.02,inactive: 0,inactive: -0.054,inactive: 0.202,–,inactive: -0.132,–,inactive: 0.201,inactive: 0.157,inactive: 0.039,–
RUFY3 isoform 3 (UniProt Q7L099),inactive: -0.008,–,inactive: 0.023,inactive: 0.196,–,inactive: -0.098,inactive: -0.054,inactive: 0.035,inactive: -0.085,inactive: -0.068,inactive: 0.016,inactive: 0.038,–,inactive: -0.032,inactive: -0.011,inactive: -0.093,inactive: 0.021,–,inactive: 0.044,–
RXRB isoform 3 (UniProt P28702),–,inactive: 0.216,–,–,inactive: -0.185,–,–,–,inactive: 0.067,–,–,–,inactive: 0.58,–,–,–,–,inactive: 0.195,–,–
S100A10 (UniProt P60903),–,inactive: 0.605,inactive: -0.345,–,–,–,–,–,inactive: 0.128,–,inactive: 0.181,–,–,–,inactive: -0.086,–,–,inactive: 0.113,inactive: 0.522,–
SEC14L1 isoform 2 (UniProt Q92503),–,–,–,–,inactive: 0.04,inactive: -0.098,–,–,inactive: 0.034,–,–,–,inactive: 0.007,inactive: 0.003,–,–,inactive: 0.02,–,inactive: 0.077,–
SAYSD1 (UniProt Q9NPB0),–,inactive: -0.004,–,–,inactive: -0.232,inactive: -0.208,–,–,inactive: 0.154,–,inactive: 0.052,–,inactive: 0.127,–,inactive: -0.099,inactive: -0.199,inactive: -0.009,inactive: 0.048,–,–
RXRG (UniProt P48443),–,–,–,inactive: -0.033,–,–,inactive: 0.128,–,–,inactive: -0.05,–,–,–,–,–,–,–,–,inactive: 0.534,–
S100A14 (UniProt Q9HCY8),–,inactive: -0.039,inactive: -0.231,inactive: 0.093,–,inactive: -0.002,inactive: -0.24,–,–,inactive: 0.208,–,–,–,inactive: 0.26,–,inactive: 0.337,inactive: 0.27,inactive: 0.337,inactive: 0.836,inactive: -0.529
SAMD4A (UniProt Q9UPU9),inactive: -0.022,–,–,–,inactive: 0.067,inactive: 0.16,–,inactive: 0.002,–,–,–,inactive: -0.046,inactive: 0.282,–,–,–,inactive: -0.01,–,inactive: 0.411,–
RRP1B (UniProt Q14684),inactive: 0.023,–,–,–,inactive: 0.004,inactive: -0.163,–,inactive: 0.089,inactive: -0.016,–,–,inactive: -0.022,inactive: 0.102,inactive: -0.054,–,inactive: 0.068,inactive: -0.07,–,inactive: -0.289,–

# Single values from the entries so far:
# Value of RTN4 isoform 2 (UniProt Q9NQC3) under log2 fold change [2]: inactive: -0.019
# Value of SAMD4A (UniProt Q9UPU9) under log2 fold change [17]: inactive: -0.01
